Several values for one entry are separate records, joined by “and”; a condition that tells them apart may be missing. Equal values may be shown once. For some assays here: At least one read-out could not be matched to a standard name with certainty. For some assays here: At least one structure is not confirmed: it was looked up by name or label, or the drawing left a doubt.
Legend:
[1] = Solubilization in water for irrigation; assay type: physicochemical; settings: to 200 mg/ml in 750 μL water for irrigation
adenovirus serotype 3 = assay: Plaque inhibition of adenovirus serotype 3 by ADPR and lithium chloride (Example 2); assay type: cell-based, Adenovirus serotype 3 (Ad3)

Row | Compound | Solubilization [1] | Plaque Counts (adenovirus serotype 3)
1 | Adenosine 5′-diphosphoribose Sodium Salt [Compound A] | went into solution easily | 
2 | [Cl-].[Li+] [Sample L, Lithium Chloride] |  | 82, 77 and 80, 84 and 66, 63

Reference: patent US12370209B2, “Methods for the use of 5′-adenosine diphosphate ribose (ADPR)” (Invirsa, Inc., priority 2016, dated 2025)
